No constants are given. Whether binding was seen depends on the method and setting. In cells and extracts the contact can be indirect. Some binding calls cover weakened binding; strength is not graded here. Where a sequence is shown, tags or fusion partners need not be part of it.
Experiments:
Test in all cases: pull-down; flag-tagged ATP6V0C and GST-tagged RNF182 constructs co-transfected in HEK-293; extracts incubated with glutathione-sepharose beads overnight at 4°C, washed four times with PBST (1% Triton X-100 in PBS); Western blot with anti-flag and anti-GST
[1] = target: T1, GST-RNF182 C-end domain (human) (UniProt Q8N6D2)
T1 sequence: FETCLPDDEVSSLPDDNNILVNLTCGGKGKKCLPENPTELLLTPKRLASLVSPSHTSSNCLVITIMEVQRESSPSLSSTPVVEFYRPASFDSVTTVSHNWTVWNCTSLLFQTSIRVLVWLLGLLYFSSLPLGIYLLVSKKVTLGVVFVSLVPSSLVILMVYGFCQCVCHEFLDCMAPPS

Protein sequences, listed by entry. Tags and fused reporters are not part of them.
UniProt P27449: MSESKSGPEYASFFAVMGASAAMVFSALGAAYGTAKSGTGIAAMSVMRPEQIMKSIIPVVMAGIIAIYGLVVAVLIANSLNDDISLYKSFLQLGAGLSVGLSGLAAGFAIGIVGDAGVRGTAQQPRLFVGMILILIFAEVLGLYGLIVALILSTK

[2] = target: T2, GST-RNF182 RING finger domain (human) (UniProt Q8N6D2)
T2 sequence: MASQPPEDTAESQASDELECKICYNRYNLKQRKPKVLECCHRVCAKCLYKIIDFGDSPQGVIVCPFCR

[3] = target: T3, GST-RNF182 full length (human) (UniProt Q8N6D2)
T3 sequence: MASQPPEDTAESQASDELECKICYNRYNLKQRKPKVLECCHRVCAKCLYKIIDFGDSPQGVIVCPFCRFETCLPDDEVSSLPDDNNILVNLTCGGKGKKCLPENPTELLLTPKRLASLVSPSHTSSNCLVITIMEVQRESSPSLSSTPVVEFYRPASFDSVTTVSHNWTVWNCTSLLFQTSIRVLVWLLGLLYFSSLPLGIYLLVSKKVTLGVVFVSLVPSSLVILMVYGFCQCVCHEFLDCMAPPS

binding [1]: binds | binding [2]: no binding | binding [3]: binds
Substance: flag-tagged ATP6V0C (from UniProt P27449 1-155)

From PMC2279130
